{"source": "patent US20050209345A1", "about": "“Lymphatic drug delivery system” (priority 2001, published 2005)", "assay": "Thoracic lymph duct and portal vein cannulated greyhound dog study: lymphatic transport of halofantrine and triglyceride, systemic availability", "settings": "mean +/- sd", "data": [{"smiles": "CCCCN(CCCC)CCC(O)c1cc2c(Cl)cc(Cl)cc2c2cc(C(F)(F)F)ccc12.Cl", "note": "(stereo not shown) [Hf HCl]", "values": [{"measurement": "Cum TG transport in lymph", "setting": "fed dogs, 107 mg Hf HCl, over 12 h, n = 3", "value": "32.5 ± 6.7", "unit": "g"}]}, {"smiles": "CCCCN(CCCC)CCC(O)c1cc2c(Cl)cc(Cl)cc2c2cc(C(F)(F)F)ccc12", "note": "(stereo not shown) [Hf base]", "values": [{"measurement": "Cum TG transport in lymph", "setting": "fasted dogs, oral 100 mg amorphous PEG 6000 solid dispersion, 0-10 h, n = 3", "value": "0.7 ± 0.5", "unit": "g"}, {"measurement": "Cum TG transport in lymph", "setting": "fed dogs, oral 100 mg amorphous PEG 6000 solid dispersion, over 12 h, n = 4", "value": "33.8 ± 3.6", "unit": "g"}]}, {"smiles": "CCCCN(CCCC)CCC(O)c1cc2c(Cl)cc(Cl)cc2c2cc(C(F)(F)F)ccc12", "note": "(stereo not shown) [Hf, halofantrine]", "values": [{"measurement": "Cum TG transport in lymph", "setting": "fed dogs, IV 2 mg/kg, over 12 h, n = 3", "value": "29.0 ± 4.4", "unit": "g"}]}]}
